PubChem BioAssay AID1508588 – Peter MacCallum Cancer Centre, 2020
The deposit covers about 18,000 reagents; this is a part drawn at random. 790 of all reagents (4.4%) count as active. 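Calls rest on a combination of fold-change classes in drug and vehicle arms, not all shown here.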

- Purpose: 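Which gene losses make BRAF-mutant melanoma cells more responsive to vemurafenib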 (primary screen)
- Cell system: human WM266.4 melanoma cells (BRAF V600 mutant)
- Knock-down reagent: siRNA pool against human genes, 40 nM
- Time to read-out: 96 h from transfection to read-out
- Treatment: vemurafenib 300 nM (about IC25), added 48 h after transfection, for 48 h; comparison arm got DMSO vehicle only
- Detection: 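Ratios to non-targeting siRNA for cell gain, counted as DAPI nuclei after minus before drug and averaged over two replicates, and for absorbance-read medium lactate per cell; both binned into fold-change classes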
- Reading the numbers: cell gain with vemurafenib: higher = more cell gain than with non-targeting siRNA; lactate per cell with vemurafenib: higher = more lactate made per cell
- Rule for the call: 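a knock-down counts as enhancing when its fold-change classes with vehicle and with vemurafenib, taken together, show a stronger drug effect on cell gain or lactate per cell; exact class pairs not stated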
- Calls: active = enhances vemurafenib effect; inactive = no enhancement seen

EPHB2 (EPH receptor B2) [SID135620616]
- cell gain with vemurafenib: 1.06
- lactate per cell with vemurafenib: 1.01
- Outcome: inactive

BPIFA2 (BPI fold containing family A member 2) [SID134326025]
- cell gain with vemurafenib: 0.33
- lactate per cell with vemurafenib: 2
- Outcome: inactive

CATSPERE (catsper channel auxiliary subunit epsilon) [SID152147311]
- cell gain with vemurafenib: 0.89
- lactate per cell with vemurafenib: 0.96
- Outcome: inactive

MRPS35 (mitochondrial ribosomal protein S35) [SID134317310]
- cell gain with vemurafenib: 0.37
- lactate per cell with vemurafenib: 1.16
- Outcome: inactive

CALCOCO1 (calcium binding and coiled-coil domain 1) [SID134312161]
- cell gain with vemurafenib: 0.53
- lactate per cell with vemurafenib: 0.67
- Outcome: inactive

CCDC32 (coiled-coil domain containing 32) [SID135623695]
- cell gain with vemurafenib: 0.35
- lactate per cell with vemurafenib: 0.81
- Outcome: inactive

MYO7B (myosin VIIB) [SID135624340]
- cell gain with vemurafenib: 0.97
- lactate per cell with vemurafenib: 0.74
- Outcome: inactive

OTOS (otospiralin) [SID134320463]
- cell gain with vemurafenib: 0.85
- lactate per cell with vemurafenib: 0.9
- Outcome: inactive

OVCH2 (ovochymase 2) [SID135625031]
- cell gain with vemurafenib: 1.21
- lactate per cell with vemurafenib: 0.78
- Outcome: inactive

ZNF395 (zinc finger protein 395) [SID135623978]
- cell gain with vemurafenib: 0.87
- lactate per cell with vemurafenib: 0.89
- Outcome: inactive

TBC1D21 (TBC1 domain family member 21) [SID134320727]
- cell gain with vemurafenib: 0.49
- lactate per cell with vemurafenib: 0.92
- Outcome: inactive

ZNF81 (zinc finger protein 81) [SID135625100]
- cell gain with vemurafenib: 0.93
- lactate per cell with vemurafenib: 0.43
- Outcome: inactive

H4C9 (H4 clustered histone 9) [SID134315769]
- cell gain with vemurafenib: 0.4
- lactate per cell with vemurafenib: 0.73
- Outcome: inactive

DMRT3 (doublesex and mab-3 related transcription factor 3) [SID134329468]
- cell gain with vemurafenib: 0.57
- lactate per cell with vemurafenib: 0.6
- Outcome: inactive

MMP3 (matrix metallopeptidase 3) [SID152155208]
- cell gain with vemurafenib: 0.81
- lactate per cell with vemurafenib: 0.14
- Outcome: active

ZNF69 (zinc finger protein 69) [SID135625152]
- cell gain with vemurafenib: 0.33
- lactate per cell with vemurafenib: 0.64
- Outcome: active

ZIC5 (Zic family zinc finger 5) [SID152151921]
- cell gain with vemurafenib: 0.9
- lactate per cell with vemurafenib: 1.12
- Outcome: inactive

NDUFB8 (NADH:ubiquinone oxidoreductase subunit B8) [SID152147744]
- cell gain with vemurafenib: 0.34
- lactate per cell with vemurafenib: 1.5
- Outcome: inactive

CAMK2N1 (calcium/calmodulin dependent protein kinase II inhibitor 1) [SID152156102]
- cell gain with vemurafenib: 0.72
- lactate per cell with vemurafenib: 0.92
- Outcome: inactive

OPHN1 (oligophrenin 1) [SID135621775]
- cell gain with vemurafenib: 0.63
- lactate per cell with vemurafenib: 0.38
- Outcome: inactive

REM2 (RRAD and GEM like GTPase 2) [SID135621549]
- cell gain with vemurafenib: 0.16
- lactate per cell with vemurafenib: 1.21
- Outcome: inactive

SEC22A (SEC22 homolog A, vesicle trafficking protein) [SID152150782]
- cell gain with vemurafenib: 0.6
- lactate per cell with vemurafenib: 0.78
- Outcome: inactive

DDA1 (DET1 and DDB1 associated 1) [SID152153669]
- cell gain with vemurafenib: 0.82
- lactate per cell with vemurafenib: 0.64
- Outcome: inactive

DMBX1 (diencephalon/mesencephalon homeobox 1) [SID134321414]
- cell gain with vemurafenib: 0.5
- lactate per cell with vemurafenib: 0.92
- Outcome: inactive

PPP4R1 (protein phosphatase 4 regulatory subunit 1) [SID152147449]
- cell gain with vemurafenib: 1.13
- lactate per cell with vemurafenib: 1.15
- Outcome: inactive

SLC10A7 [SID135622819]
- cell gain with vemurafenib: 0.56
- lactate per cell with vemurafenib: 1.07
- Outcome: inactive

NIT1 (nitrilase 1) [SID134323769]
- cell gain with vemurafenib: 0.66
- lactate per cell with vemurafenib: 0.77
- Outcome: inactive

HSF2BP (heat shock transcription factor 2 binding protein) [SID152150618]
- cell gain with vemurafenib: 0.25
- lactate per cell with vemurafenib: 1.21
- Outcome: inactive

SLCO3A1 [SID135621369]
- cell gain with vemurafenib: 0.23
- lactate per cell with vemurafenib: 1.58
- Outcome: inactive

TAS2R31 (taste 2 receptor member 31) [SID135623403]
- cell gain with vemurafenib: 0.53
- lactate per cell with vemurafenib: 0.19
- Outcome: active

PCMTD2 [SID135624127]
- cell gain with vemurafenib: 0.86
- lactate per cell with vemurafenib: 0.74
- Outcome: inactive

DCBLD2 (discoidin, CUB and LCCL domain containing 2) [SID152153712]
- cell gain with vemurafenib: 0.84
- lactate per cell with vemurafenib: 1.12
- Outcome: inactive

HSPA5 (heat shock protein family A (Hsp70) member 5) [SID135621521]
- cell gain with vemurafenib: 0.46
- lactate per cell with vemurafenib: 1.22
- Outcome: inactive

NOP16 (NOP16 nucleolar protein) [SID152148953]
- cell gain with vemurafenib: 0.53
- lactate per cell with vemurafenib: 0.44
- Outcome: inactive

HCST (hematopoietic cell signal transducer) [SID135620934]
- cell gain with vemurafenib: 0.86
- lactate per cell with vemurafenib: 0.72
- Outcome: inactive

ZNF763 (zinc finger protein 763) [SID152152131]
- cell gain with vemurafenib: 0.29
- lactate per cell with vemurafenib: 0.82
- Outcome: inactive

ABI1 (abl interactor 1) [SID135621342]
- cell gain with vemurafenib: 0.88
- lactate per cell with vemurafenib: 0.72
- Outcome: inactive

EXOSC9 (exosome component 9) [SID135623873]
- cell gain with vemurafenib: 0.22
- lactate per cell with vemurafenib: 1.81
- Outcome: inactive

MAP2 (microtubule associated protein 2) [SID135621343]
- cell gain with vemurafenib: 0.82
- lactate per cell with vemurafenib: 0.78
- Outcome: inactive

SNX33 (sorting nexin 33) [SID135623039]
- cell gain with vemurafenib: 0.79
- lactate per cell with vemurafenib: 1.12
- Outcome: inactive

Hits, among the entries above:
MMP3 (matrix metallopeptidase 3) [SID152155208]
- cell gain with vemurafenib: 0.81
- lactate per cell with vemurafenib: 0.14
- Outcome: active

ZNF69 (zinc finger protein 69) [SID135625152]
- cell gain with vemurafenib: 0.33
- lactate per cell with vemurafenib: 0.64
- Outcome: active

TAS2R31 (taste 2 receptor member 31) [SID135623403]
- cell gain with vemurafenib: 0.53
- lactate per cell with vemurafenib: 0.19
- Outcome: active
